Experimental data published in PubChem BioAssay AID2551 (National Center for Advancing Translational Sciences (NCATS), 2010).
Several values for one entry are separate records, joined by “and”; a condition that tells them apart may be missing. Equal entries are not always repeated. About 17,000 (5.5%) of roughly 310,000 compounds were called active. The shares of active, inactive and inconclusive entries below differ from those in the screen. Calls follow the shape of the dose curve; as a rule, active = well fitted inhibition curve with a large enough effect; inconclusive = small, poorly fitted or top-dose-only effect, or effect the other way; inactive = no such curve, though single readings can be large or run the other way. Potencies of inconclusive entries are doubtful fits and often do not repeat. Some structures have more than one record in an assay (separate samples or runs), and their calls can disagree.

Chains of the proteins cited; added tags and fusions are not shown. Lines headed by an entry give the natural chain unless they say otherwise; changes in a name come on top.
UniProt P51450: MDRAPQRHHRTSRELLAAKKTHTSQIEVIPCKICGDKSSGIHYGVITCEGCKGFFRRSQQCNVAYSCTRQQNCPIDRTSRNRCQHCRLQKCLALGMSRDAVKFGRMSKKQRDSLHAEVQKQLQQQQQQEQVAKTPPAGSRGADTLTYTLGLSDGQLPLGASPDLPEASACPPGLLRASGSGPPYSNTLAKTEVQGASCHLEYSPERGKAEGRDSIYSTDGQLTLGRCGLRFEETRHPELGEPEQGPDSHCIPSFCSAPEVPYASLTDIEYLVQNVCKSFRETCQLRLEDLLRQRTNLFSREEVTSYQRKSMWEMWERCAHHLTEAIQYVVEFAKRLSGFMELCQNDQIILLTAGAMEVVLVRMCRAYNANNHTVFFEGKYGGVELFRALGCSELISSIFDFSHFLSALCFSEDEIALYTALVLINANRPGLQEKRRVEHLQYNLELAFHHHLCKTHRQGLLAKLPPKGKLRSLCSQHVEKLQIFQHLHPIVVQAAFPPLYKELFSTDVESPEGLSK

target: Nuclear receptor ROR-gamma (Mus musculus) (UniProt P51450); assay: qHTS for inhibitors of ROR gamma transcriptional activity; conditions: Drosophila S2 Gal4-RORgamma UAS-luciferase reporter, 20 h; activity change, negative = inhibition: at 53.6 µM (top of the series); also: nearly all actives have a fitted effect of over 60% in size
Summary of the method: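 A Gal4/UAS one-hybrid system in insect cells: metallothionein-promoter Gal4–ROR gamma fusion plus Photinus luciferase reporter. Copper sulfate 700 uM final, 20 hr ambient incubation, luminescent detection after 10 min with reagent.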
% is scaled to controls: 0 for no effect and ±100 for the full control effect; potency is read from the fitted curve at half-maximal effect.

SMILES | Potency | activity change, negative = inhibition
COc1ccc(OC)c(C2CC(=O)N3CN(c4cccc(Cl)c4)CSC3=C2C#N)c1 (stereo not drawn) | inconclusive: 35.5 µM [inhibitor, single point] | 
COCCNC(=S)N/N=C(\C)CCc1ccc2c(c1)OCO2 | active: 4.47 µM | 
Cc1cccc(C(=O)Nc2ccc(CC(=O)O)cc2)c1 | active: 7.94 µM | 
CC(C)N(CCCNC(=O)c1ccc(CS(=O)(=O)c2c(Cl)cccc2Cl)o1)Cc1ccccc1 |  | inactive: -3.61%
CCOc1ccc(C2c3cc(OC)c(OC)cc3CC(=O)N2c2ccc(OC)cc2)cc1 (stereo not drawn) |  | inactive: -7%
COc1ccc(OC)c(NS(=O)(=O)c2c(C)nc3sccn3c2=O)c1 |  | inactive: 12.1%
C=C(c1ccccc1O)n1ccnc1 | inconclusive: 4.47 µM [activator, full curve] | 
CC/C(=C(\c1ccccc1)c1ccc(OCCN(C)C)cc1)c1ccccc1 | active: 15.8 µM and active: 10 µM | 
COc1c(C)cc(C(=O)C2CCCN(C(=O)c3ccc4[nH]ccc4c3)C2)cc1C (stereo not drawn) |  | inactive: 13%
COc1ccc(/C=C/C(=O)c2ccccc2O)cc1CN1CCOCC1 |  | inactive: 32.4%
Cc1ccc2c(c1)c1c3n2CCN=C3CCC1 | active: 11.2 µM | 
COc1ccc(-n2ncc3c(=O)n(CC(=O)OCc4ccccc4)cnc32)cc1 | inconclusive: 5.01 µM [activator, full curve, poor fit] | 
Fc1ccccc1-c1csc(=Nc2cccnc2)n1CC1CCCO1 (stereo not drawn) | inconclusive: 35.5 µM [inhibitor, single point] | 
COc1ccc(-c2[nH]c(-c3ccc(C)cc3)nc2SCC(=O)Nc2nccs2)cc1 | inconclusive: 12.6 µM [activator, single point] | 
CC(C)(C)OC(=O)N1CCNc2ccccc2C1 | active: 3.98 µM | 
O=C(N/N=C/c1ccc2c(c1)OCO2)c1cc(-c2ccccc2)nc2ccccc12 | inconclusive: 20 µM [inhibitor, single point] | 
Cc1cc(C)n2ncc(/C(N)=N/OC(=O)c3ccccc3F)c2n1 | inconclusive: 7.08 µM [inhibitor, partial curve] | 
O=C(Nc1cccnc1)c1ccc(S(=O)(=O)c2ccc(Cl)cc2)cc1 | inconclusive: 3.16 µM [activator, single point] | 
OC(COCC1CC=CCC1)Cn1cnc2ccccc21 (stereo not drawn) | inconclusive: 11.2 µM [inhibitor, single point] | 
O=C(N/N=C/c1ccc(COc2ccc(Br)cc2)o1)c1ccco1 | inconclusive: 35.5 µM [inhibitor, single point] | 
Cc1cc(C(=O)CCl)c(C)n1Cc1ccco1 | active: 7.94 µM | 
CCOC(=O)c1sc2nc(-c3cccnc3)ccc2c1N | inconclusive: 35.5 µM [inhibitor, single point] | 
CCN(CC(=O)Nc1c(F)cccc1F)C(=O)c1cccc(S(=O)(=O)N2CCN(c3ccccc3)CC2)c1 | inconclusive: 14.1 µM [activator, single point] | 
NC(=O)c1ccc(NC(=O)C#Cc2ccccc2)cc1 | inconclusive: 5.62 µM [activator, single point] | 
O=C(CCOc1ccccc1F)N1CCN(c2ccccc2O)CC1 | inconclusive: 6.31 µM [activator, full curve, poor fit] | 

Fetched by structure from above (2):
SMILES | Potency | activity change, negative = inhibition
O=C(N/N=C/c1ccc(COc2ccc(Br)cc2)o1)c1ccco1 | inconclusive: 35.5 µM [inhibitor, single point] | 
COCCNC(=S)N/N=C(\C)CCc1ccc2c(c1)OCO2 | active: 4.47 µM | 

Following part

SMILES | Potency | activity change, negative = inhibition
CCN(CC)CCCCn1c(-c2ccccc2)nc2c(NCc3ccccc3)nc(C)nc21 |  | inactive: -18.7%
O=S(=O)(c1ccc2ccccc2c1)N1CCC(c2nc(-c3ccncc3)no2)CC1 | inconclusive: 31.6 µM [activator, single point] | 
CCNC(=S)NNc1ccccc1 | active: 0.708 µM | 
CSc1ccc(/C=N/Nc2cccc(C(=O)O)c2)cc1 | inconclusive: 11.2 µM [inhibitor, single point] | 
CCn1c(-c2cc(OC)c(OC)c(OC)c2)n[nH]c1=S | inconclusive: 35.5 µM [inhibitor, single point] | 
C/C(=N\Nc1nc(N)cc(Cl)n1)c1cccc(N)c1 |  | inactive: 23.4%
COC(=O)c1cc(NS(=O)(=O)c2ccc(NC(C)=O)cc2)ccc1Cl | inconclusive: 12.6 µM [activator, single point] | 
CCOc1ccc(NC(=S)N(C)C)cc1 |  | inactive: -30.5%
NCC(O)(c1ccc(Cl)cc1)c1ccc(Cl)cc1 | inconclusive: 35.5 µM [inhibitor, single point] | 
O=C(N/N=C1\CCCc2c1[nH]c1ccc(Cl)cc21)c1ccncc1 |  | inactive: 16.7%
CSc1ccc(/C=C/c2ccc3cccc(O)c3n2)cc1 | active: 4.47 µM | 
COc1ccc(C2NN=C(c3ccc(C)cc3)S2)cc1OC (stereo not drawn) | active: 2 µM | 
COc1ccc(NC(=O)CC(C)c2ccccc2)c([N+](=O)[O-])c1 (stereo not drawn) | inconclusive: 11.2 µM [activator, partial curve] | 
Cn1cccc1C(C(=O)NC1CCCCC1)N(C(=O)Cc1cccs1)C1CC1 (stereo not drawn) | inconclusive: 0.316 µM [activator, partial curve, poor fit] | 
CC(C)COc1ccc(C(=O)OCCN2CCOCC2)cc1 | inconclusive: 20 µM [activator, single point] | 
O=C(NNC(=S)Nc1ccc(Cl)cc1Cl)C1CC1 | inconclusive: 5.62 µM [inhibitor, partial curve] | 
NCCOc1ccc(C2CCCCC2)cc1 | inconclusive: 35.5 µM [inhibitor, single point] | 
CCCN1C(=O)/C(=C/c2ccc(N3CCOCC3)cc2)NC1=S | active: 3.98 µM | 
c1ccc(-c2c[n+]3c(n2-c2ccccc2)CCC3)cc1 |  | inactive: 18.9%
COc1cccc(C(N)=O)c1OC(=O)Cc1ccccc1F |  | inactive: 0.807%
COc1cccc(NC(=O)C2CC(=O)N(C)C(=Nc3cccc(F)c3)S2)c1 (stereo not drawn) | inconclusive: 14.1 µM [activator, partial curve, poor fit] | 
Cc1cccc(OCCn2c(-c3ccco3)nc3ccccc32)c1 | active: 15.8 µM | 
Cc1nn(CCCC(=O)Nc2sc3c(c2C#N)CCC3)c(C)c1[N+](=O)[O-] | inconclusive: 15.8 µM [activator, single point] | 
O=C(N/C(=N\O)c1ccccc1)Nc1ccc(Cl)cc1 | inconclusive: 8.91 µM [activator, partial curve] | 
Cc1cc(C)cc(C(=O)Oc2coc(CSc3nnc(NC(=O)C4CC4)s3)cc2=O)c1 | inconclusive: 11.2 µM [activator, single point] | 

SMILES | Potency | activity change, negative = inhibition
CCN(CC)Cc1nc2c(c(=O)[nH]1)C1(CCCCC1)Cc1ccccc1-2 | active: 11.2 µM | 
C/C(=N\NC(=S)NC(C)C)c1ccccc1 | active: 0.562 µM | 
CCCc1nc(SCC(=O)N2CCN(c3ccccc3)CC2)c2c(=O)n(C)c(=O)n(C)c2n1 | inconclusive: 0.224 µM [activator, full curve, poor fit] | 
COc1ccc(C(=O)NCc2nnc(SCC(=O)N3CCCCC3)o2)cc1OC | inconclusive: 10 µM [activator, partial curve] | 
O=C(CCC1CCCN(C(=O)c2ccc3cc[nH]c3c2)C1)NCc1ccc(F)c(F)c1 (stereo not drawn) | inconclusive: 12.6 µM [activator, partial curve, poor fit] | 
COC(=O)C1=C(C)OC(N)=C(C#N)C1c1ccc(OC)c(CSc2ccccn2)c1 (stereo not drawn) | inconclusive: 17.8 µM [activator, single point] | 
O=[N+]([O-])c1cccc(-c2cc(-c3cc(Br)ccc3O)[nH]n2)c1 | active: 7.08 µM | 
CC(C)(C)c1ccc(OCC(=O)NCc2ccco2)c(Br)c1 | inconclusive: 35.5 µM [inhibitor, single point] | 
O=C(c1ccc(Cl)c([N+](=O)[O-])c1)N1CCN(c2ccccn2)CC1 |  | inactive: 15%
CSc1ncc(Cl)c(C(=O)Nc2ccc(S(=O)(=O)N3CCOCC3)cc2)n1 | inconclusive: 20 µM [activator, single point] | 
COc1ccc(Cl)cc1NC(=O)CSc1nncn1-c1cccnc1 | inconclusive: 12.6 µM [activator, single point] | 
O=C(CSc1ccc2nnc(-c3ccncc3)n2n1)NCc1ccco1 | inconclusive: 28.2 µM [inhibitor, single point] | 
OC(COCCC12CC3CC(CC(C3)C1)C2)CN1CCCC1 (stereo not drawn) | inconclusive: 35.5 µM [inhibitor, single point] | 
COc1ccccc1/C=C\C(=O)NCC(=O)N/N=C/c1cccc(OC)c1O | active: 4.47 µM | 
Cc1ccc(-n2c(CNc3ccc(F)cc3)nnc2SCC(N)=O)cc1 | inconclusive: 11.2 µM [activator, single point] | 
CCOC(=O)N1CCC(N(CCOC)C(=O)Nc2ccc(Cl)cc2)CC1 |  | inactive: 33%
COc1ccc(-n2ncc3c(N4CCN(Cc5ccccc5)CC4)ncnc32)cc1 | inconclusive: 11.2 µM [activator, partial curve] | 
COc1cc(SC)ccc1C(=O)NCc1ccccc1 | inconclusive: 7.94 µM [activator, partial curve] | 
C=C(c1ccc(C(=O)O)cc1)c1cc2c(cc1C)C(C)(C)CCC2(C)C | inconclusive: 17.8 µM [inhibitor, single point] | 
N#CC1=C(N)NC(SCC(=O)Nc2ccccc2)=C(C#N)C12CCCCC2 | inconclusive: 31.6 µM [activator, single point] | 
Cc1c(Br)c([N+](=O)[O-])nn1CC(=O)N1CCN(Cc2ccccc2)CC1 | inconclusive: 14.1 µM [activator, single point] | 
Cc1csc2nc(CSc3nc4ccccc4o3)c(Br)n12 | inconclusive: 0.0794 µM [activator, full curve, poor fit] | 
CS(=O)(=O)NCCOc1ccc(S(=O)(=O)N2CCCc3ccccc32)cc1 | inconclusive: 35.5 µM [activator, single point] | 

As entered above.
Entry for Cc1ccc(-n2c(CNc3ccc(F)cc3)nnc2SCC(N)=O)cc1 under Potency: inconclusive: 11.2 µM [activator, single point]
Entry for CS(=O)(=O)NCCOc1ccc(S(=O)(=O)N2CCCc3ccccc32)cc1 under Potency: inconclusive: 35.5 µM [activator, single point]
Entry for C=C(c1ccc(C(=O)O)cc1)c1cc2c(cc1C)C(C)(C)CCC2(C)C under Potency: inconclusive: 17.8 µM [inhibitor, single point]
